Data reported in publication PMC8949324.
No constants are given. Whether binding was seen depends on the method and setting. In cells and extracts the contact can be indirect. Some binding calls cover weakened binding; strength is not graded here.

The chains behind the UniProt entries cited, without tags or fusion partners.
UniProt P16794: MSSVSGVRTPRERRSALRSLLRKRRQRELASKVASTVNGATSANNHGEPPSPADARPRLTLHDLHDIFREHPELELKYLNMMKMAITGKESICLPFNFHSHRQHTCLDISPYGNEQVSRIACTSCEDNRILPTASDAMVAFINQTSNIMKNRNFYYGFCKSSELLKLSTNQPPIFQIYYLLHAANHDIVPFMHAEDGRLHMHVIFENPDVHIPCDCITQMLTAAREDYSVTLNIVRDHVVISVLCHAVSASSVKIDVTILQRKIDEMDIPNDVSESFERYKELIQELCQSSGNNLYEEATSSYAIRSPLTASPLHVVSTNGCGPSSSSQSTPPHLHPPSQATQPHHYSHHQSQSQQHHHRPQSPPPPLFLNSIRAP
UniProt P12004: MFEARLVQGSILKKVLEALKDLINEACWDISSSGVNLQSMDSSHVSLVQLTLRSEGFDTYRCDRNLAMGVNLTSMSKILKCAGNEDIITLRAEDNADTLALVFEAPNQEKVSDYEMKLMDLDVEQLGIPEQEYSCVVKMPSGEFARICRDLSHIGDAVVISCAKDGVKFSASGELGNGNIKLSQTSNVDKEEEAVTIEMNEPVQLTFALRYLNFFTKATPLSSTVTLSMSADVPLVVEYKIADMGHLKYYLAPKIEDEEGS
UniProt P16791: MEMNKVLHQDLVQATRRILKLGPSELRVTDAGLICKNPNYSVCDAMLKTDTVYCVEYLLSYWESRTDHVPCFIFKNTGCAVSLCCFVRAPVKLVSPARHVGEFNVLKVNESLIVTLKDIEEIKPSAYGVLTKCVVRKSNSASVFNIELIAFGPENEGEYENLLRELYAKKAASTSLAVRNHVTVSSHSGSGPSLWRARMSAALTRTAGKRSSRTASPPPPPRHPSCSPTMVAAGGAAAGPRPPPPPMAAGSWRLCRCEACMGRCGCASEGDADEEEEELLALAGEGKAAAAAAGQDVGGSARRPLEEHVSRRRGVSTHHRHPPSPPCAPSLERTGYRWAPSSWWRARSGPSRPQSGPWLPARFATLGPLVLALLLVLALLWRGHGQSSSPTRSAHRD

Columns and labels:
[1] = biological target: FLAG-tagged UL53 expressed from 53-F HCMV (AD169-RV encoding a FLAG-tagged version of UL53) (human cytomegalovirus (HCMV), strain AD169) (UniProt P16794); assay: co-IP
[2] = biological target: UL53-FLAG (pcDNA vector encoding a FLAG-tagged version of UL53) (human cytomegalovirus (HCMV)) (UniProt P16794); assay: co-IP

## PCNA (from UniProt P12004 1-261)
[1]
  binding: no binding

## UL50 (from UniProt P16791 1-397)
[1]
  binding: binds

## UL50-HA (pcDNA-based plasmid encoding an HA-tagged version of UL50) (from UniProt P16791 1-397)
[2]
  binding: binds
